Results are given in words; binding and its absence hold for the method and conditions named. In cells and extracts the contact can be indirect. Some entries that bind do so weakly or less than the wild type.
Molecular target: ARNT (mouse (endogenous in EL-4)) (UniProt P53762)
Assay: co-IP; EL-4 cells treated 24 h with alpinetin (30 uM), TCDD (5 nM), siAhR, CH223191 (10 uM), siAhR + alpinetin or CH223191 + alpinetin; lysed in RIPA buffer; 1 ug antibody against HSP90 or ARNT at 4 C overnight, protein A + G agarose, 4 washes with RIPA, western blotting

By UniProt entry, the sequences of proteins in these tests, tags left out. Residues count along the entry.
UniProt P53762: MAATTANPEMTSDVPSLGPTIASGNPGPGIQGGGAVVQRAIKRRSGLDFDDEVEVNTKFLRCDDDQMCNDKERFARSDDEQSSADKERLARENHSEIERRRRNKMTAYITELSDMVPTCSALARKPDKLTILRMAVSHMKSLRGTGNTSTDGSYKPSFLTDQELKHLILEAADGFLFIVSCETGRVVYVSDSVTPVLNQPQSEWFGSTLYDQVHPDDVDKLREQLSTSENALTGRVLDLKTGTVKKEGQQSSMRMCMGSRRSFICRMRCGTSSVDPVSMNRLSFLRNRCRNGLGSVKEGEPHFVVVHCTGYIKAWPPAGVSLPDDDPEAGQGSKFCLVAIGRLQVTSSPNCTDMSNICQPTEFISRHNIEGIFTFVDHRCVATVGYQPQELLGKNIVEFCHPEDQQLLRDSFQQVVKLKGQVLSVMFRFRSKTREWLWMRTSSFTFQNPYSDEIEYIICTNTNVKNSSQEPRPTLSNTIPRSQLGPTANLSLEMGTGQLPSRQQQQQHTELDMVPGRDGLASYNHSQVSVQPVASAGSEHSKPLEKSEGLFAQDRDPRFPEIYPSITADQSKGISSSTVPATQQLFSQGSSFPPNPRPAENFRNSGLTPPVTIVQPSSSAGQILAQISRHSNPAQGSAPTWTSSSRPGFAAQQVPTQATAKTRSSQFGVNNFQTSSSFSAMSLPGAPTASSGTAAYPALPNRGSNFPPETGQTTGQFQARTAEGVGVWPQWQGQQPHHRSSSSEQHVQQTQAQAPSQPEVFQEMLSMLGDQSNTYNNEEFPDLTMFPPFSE
UniProt P30561, residues 10-848: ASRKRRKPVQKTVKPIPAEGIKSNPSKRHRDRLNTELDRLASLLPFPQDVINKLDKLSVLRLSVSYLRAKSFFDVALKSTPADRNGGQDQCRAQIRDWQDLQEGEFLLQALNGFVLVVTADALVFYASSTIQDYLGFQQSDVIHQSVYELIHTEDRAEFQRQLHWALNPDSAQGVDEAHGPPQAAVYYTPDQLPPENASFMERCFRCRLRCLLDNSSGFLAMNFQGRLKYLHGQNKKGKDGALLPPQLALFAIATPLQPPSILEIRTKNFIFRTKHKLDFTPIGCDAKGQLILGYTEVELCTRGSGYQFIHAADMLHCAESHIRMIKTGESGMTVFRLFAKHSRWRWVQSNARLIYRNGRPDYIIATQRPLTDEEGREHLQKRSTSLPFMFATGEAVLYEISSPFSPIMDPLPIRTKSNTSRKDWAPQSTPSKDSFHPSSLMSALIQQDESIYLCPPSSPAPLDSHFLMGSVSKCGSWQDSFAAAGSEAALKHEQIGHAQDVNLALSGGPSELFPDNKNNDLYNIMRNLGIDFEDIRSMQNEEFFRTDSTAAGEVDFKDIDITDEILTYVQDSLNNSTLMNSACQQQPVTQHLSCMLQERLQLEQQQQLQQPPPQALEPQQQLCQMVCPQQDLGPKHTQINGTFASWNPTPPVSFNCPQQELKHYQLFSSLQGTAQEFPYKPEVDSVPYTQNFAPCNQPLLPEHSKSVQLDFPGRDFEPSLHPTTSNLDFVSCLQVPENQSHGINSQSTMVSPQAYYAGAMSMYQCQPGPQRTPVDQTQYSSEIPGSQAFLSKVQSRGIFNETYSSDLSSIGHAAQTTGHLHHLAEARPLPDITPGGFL

binding: binds
Substance: Aryl hydrocarbon receptor (from UniProt P30561 10-848)

— PMC6117360
